Data source: PubChem BioAssay AID504774 (Drosophila RNAi Screening Center, 2011)
In all, the deposit lists about 23,000 reagents; below is an unselected part of those that have a named target and a result. 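Values are quantile-normalised luminescence on an arbitrary scale; higher means more cells surviving MMS.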 Names joined by + are all predicted targets of the reagent. Not all columns of the deposit are shown.

Purpose: 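Knock-downs that shift viability of MMS-exposed cells relative to untreated ones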 (primary screen)
Cell system: Drosophila Kc167 cells
Reagent: long dsRNA against Drosophila genes, about 0.25 µg dsRNA per well
Duration: about 6 days: 3 days knock-down, then 3 days with or without MMS
Conditions: methyl methanesulphonate 0.004% (w/v) for 3 days after knock-down
Measurement: 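Viability in wells given MMS, read as ATP luminescence, normalised by quantiles plate by plate and averaged across replicates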
Direction: mean viability with MMS: higher = more surviving cells after MMS

For rols (rolling pebbles) [DRSC09873], what was measured?
mean viability with MMS: 3.58e6

With rols (rolling pebbles) [DRSC10254], what does the deposit list?
mean viability with MMS: 3.42e6

What is on record for rols (rolling pebbles) [DRSC10536]?
mean viability with MMS: 3.59e6

For CR30068 (retired record) [DRSC05477], what was measured?
mean viability with MMS: 3.44e6

For CAH9 (Carbonic anhydrase 9) [DRSC15963], how do the results read?
mean viability with MMS: 3.65e6

What did the screen give for CG33191 + Pif1B [DRSC12706]?
mean viability with MMS: 3.49e6

With CG6912 [DRSC16132], how do the results read?
mean viability with MMS: 3.67e6

For l(2)gd1 (lethal (2) giant discs 1) [DRSC02773], what does the deposit list?
mean viability with MMS: 3.51e6

For mRpS23 (mitochondrial ribosomal protein S23) [DRSC01348], what was measured?
mean viability with MMS: 3.26e6

For Mlp84B (Muscle LIM protein at 84B) [DRSC12596], what was measured?
mean viability with MMS: 3.52e6

With CG32115 [DRSC22607], how do the results read?
mean viability with MMS: 3.64e6

With Rsph9 (Radial spoke head protein 9) [DRSC01594], what does the deposit list?
mean viability with MMS: 3.59e6

What is on record for TTLL15 (Tubulin tyrosine ligase-like 15) [DRSC15543]?
mean viability with MMS: 3.37e6

For fd3F + CG42499 (retired record) [DRSC18160], what was measured?
mean viability with MMS: 3.77e6

With fd3F + CG42499 (retired record) [DRSC18161], what was measured?
mean viability with MMS: 3.64e6

For Gnpat (Glyceronephosphate O-acyltransferase) [DRSC16960], what does the deposit list?
mean viability with MMS: 3.57e6

With p115 [DRSC18813], what was measured?
mean viability with MMS: 3.60e6

What is on record for hbs (hibris) [DRSC07627]?
mean viability with MMS: 3.66e6

For zuc (zucchini) [DRSC02160], how do the results read?
mean viability with MMS: 4.05e6

For CG18507 [DRSC01334], how do the results read?
mean viability with MMS: 3.48e6

What is on record for CG18507 [DRSC01914]?
mean viability with MMS: 3.64e6

For Ubc10 (Ubiquitin conjugating enzyme 10) [DRSC07568], how do the results read?
mean viability with MMS: 3.45e6

Which result is listed for Nep6 (Neprilysin 6) [DRSC19877]?
mean viability with MMS: 3.26e6

What is on record for CG10914 [DRSC06010]?
mean viability with MMS: 3.60e6

With nec (necrotic) [DRSC06769], how do the results read?
mean viability with MMS: 3.71e6

What is on record for Tspo (Translocator protein) [DRSC00533]?
mean viability with MMS: 3.61e6

How did the screen score trv (trivet) [DRSC13846]?
mean viability with MMS: 3.64e6

With trv (trivet) [DRSC14559], what does the deposit list?
mean viability with MMS: 3.44e6

What did the screen give for trv (trivet) [DRSC14560]?
mean viability with MMS: 3.54e6

With trv (trivet) [DRSC14561], how do the results read?
mean viability with MMS: 3.71e6

How did the screen score inaF-C [DRSC18902]?
mean viability with MMS: 3.60e6

For Ac78C (Adenylyl cyclase 78C) [DRSC11467], what does the deposit list?
mean viability with MMS: 3.72e6

With Ac78C (Adenylyl cyclase 78C) [DRSC11602], what does the deposit list?
mean viability with MMS: 3.56e6

What is on record for Ac78C (Adenylyl cyclase 78C) [DRSC11619]?
mean viability with MMS: 3.55e6

For Lcp65Ag3 + Lcp65Ag2 + Lcp65Ag1 [DRSC11214], how do the results read?
mean viability with MMS: 3.89e6

For Lcp65Ag3 + Lcp65Ag2 + Lcp65Ag1 [DRSC11215], what does the deposit list?
mean viability with MMS: 3.82e6
